From patent US10435385B2, “Amide derivatives, process for preparation thereof and use thereof as insecticide” (MITSUI CHEMICALS, INC., priority 2004, dated 2019)
Some results were stated once for a whole list of compounds, not compound by compound.

Legend:
Format in all cases: in vivo
[1] = test system: diamondback moth (Plutella xylostella); assay: Insecticidal testing against diamondback moth (cabbage leaf dip, second-stage larvae); settings: concentration of 100 ppm, survival rate investigated after 3 days, 25° C.
[2] = test system: small brown planthopper (Laodelphax striatellus); assay: Insecticidal testing against small brown planthopper (acetone solution sprayed on rice); settings: concentration of 1000 ppm; survival rate investigated after 6 days; 25° C.
[3] = test system: common cutworm (Spodoptera litura); assay: Insecticidal testing against common cutworm (cabbage leaf dip, second-stage larvae); settings: concentration of 100 ppm, survival rate investigated after 3 days, 25° C.

Measured: pesticidal rate

CSc1cc(C(F)(C(F)(F)F)C(F)(F)F)cc(Br)c1NC(=O)c1cccc(NC(=O)c2ccccc2F)c1 [compound 199]
≥ 70%: all assays above

Cc1cc(C(F)(C(F)(F)F)C(F)(F)F)cc(C)c1NC(=O)c1cccc(NC(=O)c2c(F)cccc2F)c1 [compound 62]
≥ 70%: all assays above

CCCc1cc(C(F)(C(F)(F)F)C(F)(F)F)cc(I)c1NC(=O)c1cccc(N(C)C(=O)c2ccc([N+](=O)[O-])cc2)c1 [compound 1100]
≥ 70%: all assays above

Cc1cc(C(F)(C(F)(F)F)C(F)(F)F)cc(C)c1NC(=O)c1ccc(F)c(NC(=O)c2ccc(C(F)(F)F)cc2)c1 [compound 655]
≥ 70%: all assays above

CCCc1cc(C(F)(C(F)(F)F)C(F)(F)F)cc(I)c1NC(=O)c1cccc(NC(=O)c2ccccc2)c1 [compound 182]
≥ 70%: all assays above

Cc1cc(C(F)(C(F)(F)F)C(F)(F)F)cc(C)c1NC(=O)c1cccc(NC(=O)c2ccc(C(F)(F)F)cc2)c1F [compound 618]
≥ 70%: all assays above

CCc1cc(C(F)(C(F)(F)F)C(F)(F)F)cc(Br)c1NC(=O)c1cccc(NC(=O)c2ccccc2F)c1 [compound 170]
≥ 70%: all assays above

Cc1cc(C(F)(C(F)(F)F)C(F)(F)F)cc(C)c1NC(=O)c1ccc(F)c(N(C)C(=O)c2ccccc2)c1 [compound 1463]
≥ 70%: all assays above

Cc1cc(C(F)(C(F)(F)F)C(F)(F)F)cc(C)c1NC(=O)c1cccc(N(C)C(=O)c2ccc(Cl)cc2F)c1F [compound 1238]
≥ 70%: all assays above

Cc1cc(C(F)(C(F)(F)F)C(F)(F)F)cc(I)c1NC(=O)c1cccc(NC(=O)c2ccccc2)c1 [compound 166]
≥ 70%: all assays above

Cc1cc(C(F)(C(F)(F)F)C(F)(F)F)cc(C)c1NC(=O)c1cccc(NC(=O)c2ccccc2)c1F [Compound No. 601, N-(2,6-dimethyl-4-heptafluoroisopropyl)phenyl 3-(benzoylamino)-2-fluorobenzamide]
≥ 70%: all assays above

Cc1cc(C(F)(C(F)(F)F)C(F)(F)F)cc(C)c1NC(=O)c1cccc(N(C)C(=O)c2cccc([N+](=O)[O-])c2)c1F [compound 1213]
≥ 70%: all assays above

Cc1cc(C(F)(C(F)(F)F)C(F)(F)C(F)(F)F)cc(C)c1NC(=O)c1cccc(N(C)C(=O)c2ccc(C#N)cc2)c1F (stereo not drawn) [compound 1264]
≥ 70%: all assays above

Cc1cc(C(F)(C(F)(F)F)C(F)(F)C(F)(F)F)cc(C)c1NC(=O)c1cccc(N(C)C(=O)c2ccccc2C#N)c1F (stereo not drawn) [compound 1262]
≥ 70%: all assays above

Cc1cc(C(F)(C(F)(F)F)C(F)(F)F)cc(C)c1NC(=O)c1cccc(NC(=O)c2ccc(Br)cc2)c1 [compound 25]
≥ 70%: all assays above

Cc1cc(C(F)(C(F)(F)F)C(F)(F)F)cc(C)c1NC(=O)c1ccc(F)c(N(C)C(=O)c2ccc([N+](=O)[O-])cc2)c1 [Compound No. 1464, N-(2,6-dimethyl-4-heptafluoroisopropyl)phenyl 4-fluoro-3-[N-methyl-N-(4-nitrobenzoyl)amino]benzamide]
≥ 70%: all assays above

Cc1cc(C(F)(C(F)(F)F)C(F)(F)F)cc(C)c1N(C)C(=O)c1cccc(N(C)C(=O)c2ccccc2)c1 [Compound No. 1487, N-(2,6-dimethyl-4-heptafluoroisopropyl)phenyl-N-methyl 3-(N-methylbenzoylamino)benzamide]
≥ 70%: all assays above

Cc1cc(C(F)(C(F)(F)F)C(F)(F)C(F)(F)F)cc(C)c1NC(=O)c1cccc(N(C)C(=O)c2ccccc2F)c1F (stereo not drawn) [compound 1265]
≥ 70%: all assays above

Cc1cc(C(F)(C(F)(F)F)C(F)(F)C(F)(F)F)cc(C)c1NC(=O)c1cccc(N(C)C(=O)c2cccc([N+](=O)[O-])c2)c1F (stereo not drawn) [compound 1260]
≥ 70%: all assays above

Cc1cc(C(F)(C(F)(F)F)C(F)(F)F)cc(C)c1NC(=O)c1cccc(NC(=O)c2ccc(F)cc2)c1F [compound 612]
≥ 70%: all assays above

CS(=O)(=O)c1cc(C(F)(C(F)(F)F)C(F)(F)F)cc(Br)c1NC(=O)c1cccc(NC(=O)c2ccc(C#N)cc2)c1 [compound 207]
≥ 70%: all assays above

CCc1cc(C(F)(C(F)(F)F)C(F)(F)F)cc(I)c1NC(=O)c1cccc(NC(=O)c2ccc([N+](=O)[O-])cc2)c1 [compound 173]
≥ 70%: all assays above

CCCc1cc(C(F)(C(F)(F)F)C(F)(F)F)cc(I)c1NC(=O)c1cccc(N(C)C(=O)c2ccc(F)cc2)c1 [compound 1091]
≥ 70%: all assays above

Cc1cc(C(F)(C(F)(F)F)C(F)(F)F)cc(C)c1NC(=O)c1cccc(NC(=O)C2CCCCO2)c1 (stereo not drawn) [compound 130]
≥ 70%: all assays above

Cc1ccc(C(=O)Nc2cccc(C(=O)Nc3c(C)cc(C(F)(C(F)(F)F)C(F)(F)F)cc3C)c2F)cc1 [compound 604]
≥ 70%: all assays above

Cc1cc(C(F)(C(F)(F)F)C(F)(F)C(F)(F)F)cc(C)c1NC(=O)c1cccc(NC(=O)c2ccccc2F)c1F (stereo not drawn) [compound 668]
≥ 70%: all assays above

Cc1cccc(C(=O)N(C)c2cccc(C(=O)Nc3c(C)cc(C(F)(C(F)(F)F)C(F)(F)F)cc3C)c2F)c1 [compound 1210]
≥ 70%: all assays above

Cc1cc(C(F)(C(F)(F)F)C(F)(F)F)cc(C)c1NC(=O)c1cccc(NC(=O)c2ccc(OC(F)(F)F)cc2)c1F [compound 619]
≥ 70%: all assays above

CS(=O)(=O)c1cc(C(F)(C(F)(F)F)C(F)(F)F)cc(Br)c1NC(=O)c1cccc(NC(=O)c2cccnc2Cl)c1 [compound 208]
≥ 70%: all assays above

Cc1cc(C(F)(C(F)(F)F)C(F)(F)C(F)(F)F)cc(C)c1NC(=O)c1cccc(N(C)C(=O)c2ccccc2[N+](=O)[O-])c1F (stereo not drawn) [compound 1259]
≥ 70%: all assays above

Cc1cc(C(F)(C(F)(F)F)C(F)(F)F)cc(C)c1NC(=O)c1ccc(F)c(NC(=O)c2ccc(C#N)cc2)c1 [compound 652]
≥ 70%: all assays above

O=C(Nc1c(Br)cc([S+]([O-])C(F)(F)C(F)(F)C(F)(F)F)cc1Br)c1cccc(NC(=O)c2cccnc2Cl)c1 (stereo not drawn) [compound 369]
≥ 70%: all assays above

Cc1cc(C(F)(C(F)(F)F)C(F)(F)F)cc(C)c1NC(=O)c1cccc(N(C)C(=O)c2cccc(C#N)c2)c1F [compound 1216]
≥ 70%: all assays above

Cc1cc(C(F)(C(F)(F)F)C(F)(F)F)cc(C)c1NC(=O)c1cccc(NC(=O)c2ccc(C#N)cc2)c1F [compound 609]
≥ 70%: all assays above

Cc1cc(C(F)(C(F)(F)F)C(F)(F)C(F)(F)F)cc(C)c1NC(=O)c1cccc(N(C)C(=O)c2cccc(F)c2)c1F (stereo not drawn) [compound 1266]
≥ 70%: all assays above

Cc1cc(C(F)(C(F)(F)F)C(F)(F)F)cc(C)c1NC(=O)c1cccc(NC(=O)c2ccc([N+](=O)[O-])cc2)c1F [compound 607]
≥ 70%: all assays above

Cc1cc(C(F)(C(F)(F)F)C(F)(F)F)cc(C)c1NC(=O)c1cccc(N(C)C(=O)c2ccc(C#N)cc2)c1F [compound 1217]
≥ 70%: all assays above

Cc1cc(C(F)(C(F)(F)F)C(F)(F)F)cc(C)c1NC(=O)c1cccc(N(C)C(=O)c2ccc(F)cc2[N+](=O)[O-])c1F [compound 1236]
≥ 70%: all assays above

Cc1cc(C(F)(C(F)(F)F)C(F)(F)F)cc(C)c1NC(=O)c1cccc(N(C)C(=O)c2ccccc2[N+](=O)[O-])c1F [compound 1212]
≥ 70%: all assays above

O=C(Nc1c(Br)cc(C(F)(C(F)(F)F)C(F)(F)F)cc1Br)c1cccc(NC(=O)c2ccccc2F)c1 [Compound No. 8, N-(2,6-dibromo-4-heptafluoroisopropyl)phenyl 3-(2-fluorobenzoyl)aminobenzamide]
≥ 70%: all assays above
